The list shows a part of the results.
Tests used:
Test in all cases: glycan array binding signal (z-score within array); higher = stronger binding
Settings in all cases: glycan notation: IUPAC condensed, linker removed
[1] = molecular target: Neu5Ac(a2-3)Gal(b1-3)GlcNAc(b1-2)Man(a1-3)[GlcNAc(b1-4)][Neu5Ac(a2-3)Gal(b1-3)GlcNAc(b1-2)Man(a1-6)]Man(b1-4)GlcNAc(b1-4)GlcNAc
Procedure, shortened: (§1)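 Glycan array data were curated from 3228 arrays in the Consortium for Functional Glycomics database and kept only where the protein sequence was available. Glycan names were converted to IUPAC-condensed notation, and columns mapping to the same glycan were averaged. The binding signal is a within-array Z-score, averaged across arrays of the same protein sequence at different concentrations or buffers and across linkers. Negative Z-scores can be read as non-binding.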

[2] = molecular target: Neu5Ac(a2-3)Gal(b1-3)GlcNAc(b1-2)Man(a1-3)[Neu5Ac(a2-3)Gal(b1-3)GlcNAc(b1-2)Man(a1-6)]Man(b1-4)GlcNAc(b1-4)GlcNAc
Procedure, shortened: as §1

[3] = molecular target: Neu5Ac(a2-3)Gal(b1-3)GlcNAc(b1-3)Gal(b1-3)GlcNAc
Procedure, shortened: as §1

[4] = molecular target: Neu5Ac(a2-3)Gal(b1-3)GlcNAc(b1-3)Gal(b1-4)GlcNAc
Procedure, shortened: as §1

[5] = molecular target: Neu5Ac(a2-3)Gal(b1-3)GlcNAc(b1-3)GalNAc
Procedure, shortened: as §1

[6] = molecular target: Neu5Ac(a2-3)Gal(b1-3)GlcNAc(b1-4)Gal(b1-4)Glc
Procedure, shortened: as §1

[7] = molecular target: Neu5Ac(a2-3)Gal(b1-3)GlcNAc(b1-6)GalNAc
Procedure, shortened: as §1

[8] = molecular target: Neu5Ac(a2-3)Gal(b1-3)GlcNAc6S
Procedure, shortened: as §1

[9] = molecular target: Neu5Ac(a2-3)Gal(b1-3)[Fuc(a1-4)]GlcNAc
Procedure, shortened: as §1

[10] = molecular target: Neu5Ac(a2-3)Gal(b1-3)[Fuc(a1-4)]GlcNAc(b1-3)Gal(b1-3)[Fuc(a1-4)]GlcNAc
Procedure, shortened: as §1

[11] = molecular target: Neu5Ac(a2-3)Gal(b1-3)[Fuc(a1-4)]GlcNAc(b1-3)Gal(b1-4)[Fuc(a1-3)]GlcNAc
Procedure, shortened: as §1

[12] = molecular target: Neu5Ac(a2-3)Gal(b1-3)[GlcNAc(b1-6)]GalNAc
Procedure, shortened: as §1

[13] = molecular target: Neu5Ac(a2-3)Gal(b1-3)[Neu5Ac(a2-6)]GalNAc
Procedure, shortened: as §1

[14] = molecular target: Neu5Ac(a2-3)Gal(b1-3)[Neu5Ac(a2-6)]GlcNAc(b1-3)[Fuc(a1-3)[Gal(b1-4)]GlcNAc(b1-6)]Gal(b1-4)Glc
Procedure, shortened: as §1

[15] = molecular target: Neu5Ac(a2-3)Gal(b1-3)]Neu5Ac(a2-3)Gal(b1-4)]GlcNAc
Procedure, shortened: as §1

Neu5Ac(a2-3)Gal(b1-4)Glc = molecular target: Neu5Ac(a2-3)Gal(b1-4)Glc
Procedure, shortened: as §1

[16] = molecular target: Neu5Ac(a2-3)Gal(b1-4)GlcNAc
Procedure, shortened: as §1

[17] = molecular target: Neu5Ac(a2-3)Gal(b1-4)GlcNAc(b1-2)Man
Procedure, shortened: as §1

[18] = molecular target: Neu5Ac(a2-3)Gal(b1-4)GlcNAc(b1-2)Man(a1-3)[GlcNAc(b1-4)][Neu5Ac(a2-3)Gal(b1-4)GlcNAc(b1-2)Man(a1-6)]Man(b1-4)GlcNAc(b1-4)GlcNAc
Procedure, shortened: as §1

[19] = molecular target: Neu5Ac(a2-3)Gal(b1-4)GlcNAc(b1-2)Man(a1-3)[Neu5Ac(a2-3)Gal(b1-4)GlcNAc(b1-2)Man(a1-6)]Man(b1-4)GlcNAc(b1-4)GlcNAc
Procedure, shortened: as §1

[20] = molecular target: Neu5Ac(a2-3)Gal(b1-4)GlcNAc(b1-2)Man(a1-3)[Neu5Ac(a2-3)Gal(b1-4)GlcNAc(b1-2)Man(a1-6)]Man(b1-4)GlcNAc(b1-4)[Fuc(a1-6)]GlcNAc
Procedure, shortened: as §1

[21] = molecular target: Neu5Ac(a2-3)Gal(b1-4)GlcNAc(b1-2)Man(a1-3)[Neu5Ac(a2-6)Gal(b1-4)GlcNAc(b1-2)Man(a1-6)]Man(b1-4)GlcNAc(b1-4)GlcNAc
Procedure, shortened: as §1

[22] = molecular target: Neu5Ac(a2-3)Gal(b1-4)GlcNAc(b1-2)[Neu5Ac(a2-3)Gal(b1-4)GlcNAc(b1-4)]Man(a1-3)[GlcNAc(b1-4)][Neu5Ac(a2-3)Gal(b1-4)GlcNAc(b1-2)[Neu5Ac(a2-3)Gal(b1-4)GlcNAc(b1-6)]Man(a1-6)]Man(b1-4)GlcNAc(b1-4)GlcNAc
Procedure, shortened: as §1

[23] = molecular target: Neu5Ac(a2-3)Gal(b1-4)GlcNAc(b1-2)[Neu5Ac(a2-3)Gal(b1-4)GlcNAc(b1-4)]Man(a1-3)[GlcNAc(b1-4)][Neu5Ac(a2-3)Gal(b1-4)GlcNAc(b1-4)Man(a1-6)]Man(b1-4)GlcNAc(b1-4)GlcNAc
Procedure, shortened: as §1

[24] = molecular target: Neu5Ac(a2-3)Gal(b1-4)GlcNAc(b1-2)[Neu5Ac(a2-3)Gal(b1-4)GlcNAc(b1-6)]Man(a1-6)[Neu5Ac(a2-3)Gal(b1-4)GlcNAc(b1-2)Man(a1-3)]Man(b1-4)GlcNAc(b1-4)GlcNAc
Procedure, shortened: as §1

[25] = molecular target: Neu5Ac(a2-3)Gal(b1-4)GlcNAc(b1-2)[Neu5Ac(a2-3)Gal(b1-4)GlcNAc(b1-6)]Man(a1-6)[Neu5Ac(a2-3)Gal(b1-4)GlcNAc(b1-2)Man(a1-3)][GlcNAc(b1-4)]Man(b1-4)GlcNAc(b1-4)GlcNAc
Procedure, shortened: as §1

[26] = molecular target: Neu5Ac(a2-3)Gal(b1-4)GlcNAc(b1-3)Gal
Procedure, shortened: as §1

[27] = molecular target: Neu5Ac(a2-3)Gal(b1-4)GlcNAc(b1-3)Gal(b1-3)GlcNAc
Procedure, shortened: as §1

[28] = molecular target: Neu5Ac(a2-3)Gal(b1-4)GlcNAc(b1-3)Gal(b1-4)GlcNAc
Procedure, shortened: as §1

[29] = molecular target: Neu5Ac(a2-3)Gal(b1-4)GlcNAc(b1-3)Gal(b1-4)GlcNAc(b1-2)Man(a1-3)[Neu5Ac(a2-3)Gal(b1-4)GlcNAc(b1-3)Gal(b1-4)GlcNAc(b1-2)Man(a1-6)]Man(b1-4)GlcNAc(b1-4)GlcNAc
Procedure, shortened: as §1

[30] = molecular target: Neu5Ac(a2-3)Gal(b1-4)GlcNAc(b1-3)Gal(b1-4)GlcNAc(b1-3)Gal(b1-4)GlcNAc
Procedure, shortened: as §1

[31] = molecular target: Neu5Ac(a2-3)Gal(b1-4)GlcNAc(b1-3)Gal(b1-4)GlcNAc(b1-3)Gal(b1-4)GlcNAc(b1-2)Man(a1-3)[Neu5Ac(a2-3)Gal(b1-4)GlcNAc(b1-3)Gal(b1-4)GlcNAc(b1-3)Gal(b1-4)GlcNAc(b1-2)Man(a1-6)]GalNAc
Procedure, shortened: as §1

[32] = molecular target: Neu5Ac(a2-3)Gal(b1-4)GlcNAc(b1-3)Gal(b1-4)GlcNAc(b1-3)GalNAc
Procedure, shortened: as §1

[33] = molecular target: Neu5Ac(a2-3)Gal(b1-4)GlcNAc(b1-3)Gal(b1-4)GlcNAc(b1-3)[Neu5Ac(a2-3)Gal(b1-4)GlcNAc(b1-3)Gal(b1-4)GlcNAc(b1-6)]GalNAc
Procedure, shortened: as §1

[34] = molecular target: Neu5Ac(a2-3)Gal(b1-4)GlcNAc(b1-3)Gal(b1-4)GlcNAc(b1-6)[Gal(b1-3)]GalNAc
Procedure, shortened: as §1

[35] = molecular target: Neu5Ac(a2-3)Gal(b1-4)GlcNAc(b1-3)Gal(b1-4)[Fuc(a1-3)]GlcNAc
Procedure, shortened: as §1

[36] = molecular target: Neu5Ac(a2-3)Gal(b1-4)GlcNAc(b1-3)GalNAc
Procedure, shortened: as §1

[37] = molecular target: Neu5Ac(a2-3)Gal(b1-4)GlcNAc(b1-3)[Neu5Ac(a2-3)Gal(b1-4)GlcNAc(b1-6)]GalNAc
Procedure, shortened: as §1

B1: SfaEH (Escherichia coli), Q1RDG5 (protein)
chain: LLCRNNQTGQVFNSGDTSFRVNVSPVVQYDKSISVLDLSQLVSCQNEDSTGQNYDYLKILKGSGFSPALDTKTYGRLDFTSRPTGYARQLPLQFDLQVTEAFYQYGVWKPFPAKLYLYPAPGVFGKVINNGDLLATLYVNKFSTKGQEAGERNFTWRFYATNDVYIQTGTCRVSSNNVKVDLPSYPGGPVTVPLTVRCDQTQSVSYTLSGPVTGSGNTVFANTAASGSGGVGIQLSDNVGPVPAGQPRSLGQVGSSPVSLGLKASYALTGQASPTPGAVQSVINVTFSYN
glycan array binding signal (z-score) [1]: -1.23 | glycan array binding signal (z-score) [2]: -0.547 | glycan array binding signal (z-score) [3]: -0.355 | glycan array binding signal (z-score) [4]: 1.06 | glycan array binding signal (z-score) [5]: 0.084 | glycan array binding signal (z-score) [6]: -0.421 | glycan array binding signal (z-score) [7]: -0.614 | glycan array binding signal (z-score) [8]: -1.08 | glycan array binding signal (z-score) [9]: 0.837 | glycan array binding signal (z-score) [10]: 1.59 | glycan array binding signal (z-score) [11]: 0.156 | glycan array binding signal (z-score) [12]: 1.67 | glycan array binding signal (z-score) [13]: -0.374 | glycan array binding signal (z-score) [14]: 0.244 | glycan array binding signal (z-score) [15]: 0.602 | glycan array binding signal (z-score) (Neu5Ac(a2-3)Gal(b1-4)Glc): 0.596 | glycan array binding signal (z-score) [16]: 0.437 | glycan array binding signal (z-score) [17]: 0.031 | glycan array binding signal (z-score) [18]: -0.131 | glycan array binding signal (z-score) [19]: -0.17 | glycan array binding signal (z-score) [20]: 0.008 | glycan array binding signal (z-score) [21]: 0.07 | glycan array binding signal (z-score) [22]: -0.316 | glycan array binding signal (z-score) [23]: -0.096 | glycan array binding signal (z-score) [24]: 0.024 | glycan array binding signal (z-score) [25]: -0.828 | glycan array binding signal (z-score) [26]: 1.05 | glycan array binding signal (z-score) [27]: -0.362 | glycan array binding signal (z-score) [28]: -0.81 | glycan array binding signal (z-score) [29]: 0.71 | glycan array binding signal (z-score) [30]: 7.11 | glycan array binding signal (z-score) [31]: 0.267 | glycan array binding signal (z-score) [32]: 1.1 | glycan array binding signal (z-score) [33]: 0.688 | glycan array binding signal (z-score) [34]: -0.13 | glycan array binding signal (z-score) [35]: -0.494 | glycan array binding signal (z-score) [36]: -0.56 | glycan array binding signal (z-score) [37]: -0.154

Source: the supplement of paper PMC8728848
